According to the supplement of paper PMC6411743:
± gives the standard deviation of the averaged measurements. The list shows a part of the results.

Columns and labels:
Experiment in all cases: NP40-soluble protein abundance relative to vehicle (solubility fold change) (ratio); higher = more soluble protein in presence of GTP
[1] = target: T1, H3BT22 and related entries (UniProt Q9Y5N6)
T1 sequence (whole entry): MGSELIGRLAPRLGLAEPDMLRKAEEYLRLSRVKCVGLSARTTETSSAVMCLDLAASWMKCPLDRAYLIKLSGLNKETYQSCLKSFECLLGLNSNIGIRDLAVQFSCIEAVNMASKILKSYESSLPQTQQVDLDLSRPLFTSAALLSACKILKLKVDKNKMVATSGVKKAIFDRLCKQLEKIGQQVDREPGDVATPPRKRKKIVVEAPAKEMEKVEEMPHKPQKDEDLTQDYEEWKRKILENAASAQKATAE
Summary of the method: (§1)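 Jurkat crude lysate prepared with a Dounce homogeniser was treated at eight concentrations spanning 0.1 to 10 mM, 10 min at room temperature then 3 min at 37 °C. Solubilisation with 0.8% NP40 and benzonase and ultracentrifugation preceded TMT labelling of the supernatant for LC-MS/MS. Fold change against the detergent-processed vehicle was determined per replicate from vsn-normalised intensities, across three independent experiments.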

[2] = target: T2, H7C4X9 and related entries (UniProt Q9ULU4)
T2 sequence (whole entry): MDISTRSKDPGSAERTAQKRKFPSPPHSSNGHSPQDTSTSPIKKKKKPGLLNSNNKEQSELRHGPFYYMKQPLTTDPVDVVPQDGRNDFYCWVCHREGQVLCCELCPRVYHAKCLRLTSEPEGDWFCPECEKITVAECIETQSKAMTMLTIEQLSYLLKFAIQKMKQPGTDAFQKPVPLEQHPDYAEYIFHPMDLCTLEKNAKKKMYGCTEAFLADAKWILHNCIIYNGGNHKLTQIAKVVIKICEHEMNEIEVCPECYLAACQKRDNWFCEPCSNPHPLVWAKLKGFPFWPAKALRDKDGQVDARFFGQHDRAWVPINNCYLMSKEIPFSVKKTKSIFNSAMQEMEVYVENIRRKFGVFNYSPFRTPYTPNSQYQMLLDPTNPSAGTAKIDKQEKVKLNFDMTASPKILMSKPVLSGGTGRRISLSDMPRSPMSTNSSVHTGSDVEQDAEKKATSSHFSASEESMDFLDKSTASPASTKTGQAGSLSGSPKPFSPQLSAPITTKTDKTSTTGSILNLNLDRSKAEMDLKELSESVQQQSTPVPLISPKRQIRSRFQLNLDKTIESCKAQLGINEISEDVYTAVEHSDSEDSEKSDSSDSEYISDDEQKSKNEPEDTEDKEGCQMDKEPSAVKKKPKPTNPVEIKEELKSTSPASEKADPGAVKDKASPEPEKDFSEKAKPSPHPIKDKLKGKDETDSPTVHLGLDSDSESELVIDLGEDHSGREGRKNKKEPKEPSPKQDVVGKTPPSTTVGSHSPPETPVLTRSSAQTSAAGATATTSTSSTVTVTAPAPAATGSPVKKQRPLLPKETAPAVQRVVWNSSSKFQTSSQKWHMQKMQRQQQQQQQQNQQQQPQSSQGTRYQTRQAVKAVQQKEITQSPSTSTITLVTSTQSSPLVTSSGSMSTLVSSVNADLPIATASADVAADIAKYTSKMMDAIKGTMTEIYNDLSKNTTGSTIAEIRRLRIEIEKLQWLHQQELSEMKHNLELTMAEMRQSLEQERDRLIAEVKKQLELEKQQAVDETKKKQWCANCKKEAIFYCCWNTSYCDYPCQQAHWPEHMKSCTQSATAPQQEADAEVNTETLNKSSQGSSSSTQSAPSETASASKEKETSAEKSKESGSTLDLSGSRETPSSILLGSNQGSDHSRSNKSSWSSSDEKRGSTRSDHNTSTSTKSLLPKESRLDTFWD
Summary of the method: as §1

[3] = target: T3, J3KPD3 and related entries (UniProt Q9Y580)
T3 sequence (whole entry): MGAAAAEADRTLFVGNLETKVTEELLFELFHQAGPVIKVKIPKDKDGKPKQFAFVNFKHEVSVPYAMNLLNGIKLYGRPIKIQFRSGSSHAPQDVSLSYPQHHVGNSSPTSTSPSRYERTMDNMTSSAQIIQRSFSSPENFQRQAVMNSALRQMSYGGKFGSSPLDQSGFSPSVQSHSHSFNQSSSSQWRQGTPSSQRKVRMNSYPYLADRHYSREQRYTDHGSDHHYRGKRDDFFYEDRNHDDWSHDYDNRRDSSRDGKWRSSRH
Summary of the method: as §1

[4] = target: T4, J3KPT4 and related entries (UniProt Q9H4I3)
T4 sequence (whole entry): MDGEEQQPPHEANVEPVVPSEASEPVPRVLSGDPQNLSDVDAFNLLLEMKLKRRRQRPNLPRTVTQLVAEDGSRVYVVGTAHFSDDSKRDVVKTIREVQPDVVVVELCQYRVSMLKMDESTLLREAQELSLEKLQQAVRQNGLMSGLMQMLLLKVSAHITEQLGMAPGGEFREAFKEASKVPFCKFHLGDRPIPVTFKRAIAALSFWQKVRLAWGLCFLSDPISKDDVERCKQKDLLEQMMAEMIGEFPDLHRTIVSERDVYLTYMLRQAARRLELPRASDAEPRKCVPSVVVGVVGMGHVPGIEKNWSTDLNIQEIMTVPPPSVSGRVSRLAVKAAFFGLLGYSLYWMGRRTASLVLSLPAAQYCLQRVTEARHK
Summary of the method: as §1

[5] = target: T5, J3KSZ8 and related entries (UniProt Q68DK7)
T5 sequence (whole entry): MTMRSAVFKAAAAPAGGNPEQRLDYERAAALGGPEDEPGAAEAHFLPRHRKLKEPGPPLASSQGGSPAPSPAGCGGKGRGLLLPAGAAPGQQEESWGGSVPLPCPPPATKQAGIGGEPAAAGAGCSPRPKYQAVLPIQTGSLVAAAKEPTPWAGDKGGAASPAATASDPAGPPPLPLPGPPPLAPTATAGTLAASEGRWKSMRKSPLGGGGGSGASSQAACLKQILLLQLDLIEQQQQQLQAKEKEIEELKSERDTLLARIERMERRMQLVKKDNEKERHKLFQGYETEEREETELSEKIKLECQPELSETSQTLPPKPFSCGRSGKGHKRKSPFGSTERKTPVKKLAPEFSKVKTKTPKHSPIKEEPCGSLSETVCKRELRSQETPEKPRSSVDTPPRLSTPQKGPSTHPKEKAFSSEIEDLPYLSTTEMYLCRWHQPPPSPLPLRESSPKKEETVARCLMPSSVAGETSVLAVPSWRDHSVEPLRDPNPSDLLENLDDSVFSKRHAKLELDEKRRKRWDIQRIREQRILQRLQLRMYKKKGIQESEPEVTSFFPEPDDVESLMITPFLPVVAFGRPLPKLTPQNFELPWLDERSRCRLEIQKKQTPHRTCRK
Summary of the method: as §1

[6] = target: T6, K7EL81 and related entries (UniProt Q9BZL4)
T6 sequence (whole entry): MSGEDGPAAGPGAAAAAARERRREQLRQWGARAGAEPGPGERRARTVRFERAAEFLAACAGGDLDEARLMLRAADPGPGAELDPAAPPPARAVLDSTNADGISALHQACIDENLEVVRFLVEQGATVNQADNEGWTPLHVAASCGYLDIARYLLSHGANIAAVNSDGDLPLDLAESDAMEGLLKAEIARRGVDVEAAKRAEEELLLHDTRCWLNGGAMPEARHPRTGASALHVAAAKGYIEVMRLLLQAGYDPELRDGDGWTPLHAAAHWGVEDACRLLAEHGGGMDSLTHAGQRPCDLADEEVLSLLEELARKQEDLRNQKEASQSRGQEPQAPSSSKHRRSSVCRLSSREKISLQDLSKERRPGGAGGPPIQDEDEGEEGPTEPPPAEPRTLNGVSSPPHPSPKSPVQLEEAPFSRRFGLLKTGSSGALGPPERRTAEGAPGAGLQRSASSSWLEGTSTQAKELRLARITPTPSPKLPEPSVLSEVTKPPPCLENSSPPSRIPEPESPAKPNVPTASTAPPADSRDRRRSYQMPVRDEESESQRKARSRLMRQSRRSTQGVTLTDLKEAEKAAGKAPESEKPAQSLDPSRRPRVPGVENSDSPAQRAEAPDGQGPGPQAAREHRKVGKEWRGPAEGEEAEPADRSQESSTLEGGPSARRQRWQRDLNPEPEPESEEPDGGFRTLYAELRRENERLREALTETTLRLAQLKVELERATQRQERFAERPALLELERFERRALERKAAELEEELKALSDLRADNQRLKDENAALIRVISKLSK
Summary of the method: as §1

Nc1nc2c(ncn2[C@@H]2O[C@H](COP(=O)(O)OP(=O)(O)OP(=O)(O)O)[C@@H](O)[C@H]2O)c(=O)[nH]1 [guanosine triphosphate]
NP40-soluble protein abundance ([1]; concentration: 0.1mM): 0.923 ± 0.056
NP40-soluble protein abundance ([1]; concentration: 0.5mM): 0.922 ± 0.05
NP40-soluble protein abundance ([1]; concentration: 1mM): 0.976 ± 0.095
NP40-soluble protein abundance ([1]; concentration: 2mM): 0.935 ± 0.12
NP40-soluble protein abundance ([1]; concentration: 4mM): 0.919 ± 0.12
NP40-soluble protein abundance ([1]; concentration: 6mM): 0.945 ± 0.11
NP40-soluble protein abundance ([1]; concentration: 8mM): 0.936 ± 0.049
NP40-soluble protein abundance ([1]; concentration: 10mM): 0.957 ± 0.12
NP40-soluble protein abundance ([2]; concentration: 0.1mM): 1.05 ± 0.083
NP40-soluble protein abundance ([2]; concentration: 0.5mM): 1.09 ± 0.11
NP40-soluble protein abundance ([2]; concentration: 1mM): 1.14 ± 0.1
NP40-soluble protein abundance ([2]; concentration: 2mM): 1.21 ± 0.081
NP40-soluble protein abundance ([2]; concentration: 4mM): 1.28 ± 0.11
NP40-soluble protein abundance ([2]; concentration: 6mM): 1.28 ± 0.092
NP40-soluble protein abundance ([2]; concentration: 8mM): 1.31 ± 0.13
NP40-soluble protein abundance ([2]; concentration: 10mM): 1.33 ± 0.15
NP40-soluble protein abundance ([3]; concentration: 0.1mM): 1.1 ± 0.1
NP40-soluble protein abundance ([3]; concentration: 0.5mM): 1.07 ± 0.066
NP40-soluble protein abundance ([3]; concentration: 1mM): 1.12 ± 0.18
NP40-soluble protein abundance ([3]; concentration: 2mM): 1.21 ± 0.23
NP40-soluble protein abundance ([3]; concentration: 4mM): 1.33 ± 0.35
NP40-soluble protein abundance ([3]; concentration: 6mM): 1.33 ± 0.29
NP40-soluble protein abundance ([3]; concentration: 8mM): 1.35 ± 0.28
NP40-soluble protein abundance ([3]; concentration: 10mM): 1.35 ± 0.31
NP40-soluble protein abundance ([4]; concentration: 0.1mM): 1.03 ± 0.03
NP40-soluble protein abundance ([4]; concentration: 0.5mM): 1.01 ± 0.027
NP40-soluble protein abundance ([4]; concentration: 1mM): 0.984 ± 0.058
NP40-soluble protein abundance ([4]; concentration: 2mM): 0.973 ± 0.056
NP40-soluble protein abundance ([4]; concentration: 4mM): 0.953 ± 0.042
NP40-soluble protein abundance ([4]; concentration: 6mM): 0.989 ± 0.024
NP40-soluble protein abundance ([4]; concentration: 8mM): 0.916 ± 0.036
NP40-soluble protein abundance ([4]; concentration: 10mM): 0.906 ± 0.099
NP40-soluble protein abundance ([5]; concentration: 0.1mM): 1.02 ± 0.068
NP40-soluble protein abundance ([5]; concentration: 0.5mM): 1.02 ± 0.069
NP40-soluble protein abundance ([5]; concentration: 1mM): 1.12 ± 0.15
NP40-soluble protein abundance ([5]; concentration: 2mM): 1.19 ± 0.13
NP40-soluble protein abundance ([5]; concentration: 4mM): 1.27 ± 0.26
NP40-soluble protein abundance ([5]; concentration: 6mM): 1.3 ± 0.18
NP40-soluble protein abundance ([5]; concentration: 8mM): 1.4 ± 0.36
NP40-soluble protein abundance ([5]; concentration: 10mM): 1.48 ± 0.41
NP40-soluble protein abundance ([6]; concentration: 0.1mM): 0.965 ± 0.022
NP40-soluble protein abundance ([6]; concentration: 0.5mM): 0.917 ± 0.038
NP40-soluble protein abundance ([6]; concentration: 1mM): 0.986 ± 0.035
NP40-soluble protein abundance ([6]; concentration: 2mM): 0.964 ± 0.052
NP40-soluble protein abundance ([6]; concentration: 4mM): 0.987 ± 0.035
NP40-soluble protein abundance ([6]; concentration: 6mM): 0.973 ± 0.06
NP40-soluble protein abundance ([6]; concentration: 8mM): 0.981 ± 0.021
NP40-soluble protein abundance ([6]; concentration: 10mM): 1.03 ± 0.043
